Assay results published in publication PMC10493023.
These are yes or no findings as the source states them, for the method shown. In cells and extracts the contact can be indirect. Some entries that bind do so weakly or less than the wild type.

Chains of the proteins cited; added tags and fusions are not shown.
UniProt Q86WJ1: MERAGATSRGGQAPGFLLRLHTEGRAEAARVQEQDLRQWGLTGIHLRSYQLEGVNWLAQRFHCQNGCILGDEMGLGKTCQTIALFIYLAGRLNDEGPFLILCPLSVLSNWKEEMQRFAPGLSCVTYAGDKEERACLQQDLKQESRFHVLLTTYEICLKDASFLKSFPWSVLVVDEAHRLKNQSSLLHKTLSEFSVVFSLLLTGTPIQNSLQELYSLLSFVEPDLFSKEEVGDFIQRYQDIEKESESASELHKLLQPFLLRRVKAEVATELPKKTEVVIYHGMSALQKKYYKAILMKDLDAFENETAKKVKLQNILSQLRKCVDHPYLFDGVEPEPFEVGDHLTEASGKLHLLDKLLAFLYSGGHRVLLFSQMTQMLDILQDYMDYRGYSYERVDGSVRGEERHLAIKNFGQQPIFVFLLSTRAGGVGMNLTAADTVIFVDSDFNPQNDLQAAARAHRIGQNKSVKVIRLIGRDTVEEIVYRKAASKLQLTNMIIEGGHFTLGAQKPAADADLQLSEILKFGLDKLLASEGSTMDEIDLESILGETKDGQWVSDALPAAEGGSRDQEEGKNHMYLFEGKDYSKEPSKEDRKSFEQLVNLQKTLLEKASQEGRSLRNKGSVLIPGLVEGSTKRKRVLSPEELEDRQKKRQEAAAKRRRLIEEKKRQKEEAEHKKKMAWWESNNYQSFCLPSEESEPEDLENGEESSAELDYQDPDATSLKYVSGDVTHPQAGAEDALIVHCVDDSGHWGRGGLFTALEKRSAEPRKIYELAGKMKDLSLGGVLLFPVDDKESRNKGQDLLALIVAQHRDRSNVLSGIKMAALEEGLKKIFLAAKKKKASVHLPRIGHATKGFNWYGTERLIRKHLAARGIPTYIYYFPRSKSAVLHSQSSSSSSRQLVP
UniProt Q9NRC8: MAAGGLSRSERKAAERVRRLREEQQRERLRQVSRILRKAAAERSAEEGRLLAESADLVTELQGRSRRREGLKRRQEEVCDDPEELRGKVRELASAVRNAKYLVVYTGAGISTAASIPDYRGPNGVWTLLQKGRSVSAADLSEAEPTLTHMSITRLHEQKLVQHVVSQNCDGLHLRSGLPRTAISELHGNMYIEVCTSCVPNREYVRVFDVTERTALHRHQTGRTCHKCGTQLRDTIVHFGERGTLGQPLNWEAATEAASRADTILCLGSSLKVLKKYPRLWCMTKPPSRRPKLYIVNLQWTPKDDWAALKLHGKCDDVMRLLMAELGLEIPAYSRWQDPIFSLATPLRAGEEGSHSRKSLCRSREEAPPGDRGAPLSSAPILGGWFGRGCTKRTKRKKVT
UniProt Q99814: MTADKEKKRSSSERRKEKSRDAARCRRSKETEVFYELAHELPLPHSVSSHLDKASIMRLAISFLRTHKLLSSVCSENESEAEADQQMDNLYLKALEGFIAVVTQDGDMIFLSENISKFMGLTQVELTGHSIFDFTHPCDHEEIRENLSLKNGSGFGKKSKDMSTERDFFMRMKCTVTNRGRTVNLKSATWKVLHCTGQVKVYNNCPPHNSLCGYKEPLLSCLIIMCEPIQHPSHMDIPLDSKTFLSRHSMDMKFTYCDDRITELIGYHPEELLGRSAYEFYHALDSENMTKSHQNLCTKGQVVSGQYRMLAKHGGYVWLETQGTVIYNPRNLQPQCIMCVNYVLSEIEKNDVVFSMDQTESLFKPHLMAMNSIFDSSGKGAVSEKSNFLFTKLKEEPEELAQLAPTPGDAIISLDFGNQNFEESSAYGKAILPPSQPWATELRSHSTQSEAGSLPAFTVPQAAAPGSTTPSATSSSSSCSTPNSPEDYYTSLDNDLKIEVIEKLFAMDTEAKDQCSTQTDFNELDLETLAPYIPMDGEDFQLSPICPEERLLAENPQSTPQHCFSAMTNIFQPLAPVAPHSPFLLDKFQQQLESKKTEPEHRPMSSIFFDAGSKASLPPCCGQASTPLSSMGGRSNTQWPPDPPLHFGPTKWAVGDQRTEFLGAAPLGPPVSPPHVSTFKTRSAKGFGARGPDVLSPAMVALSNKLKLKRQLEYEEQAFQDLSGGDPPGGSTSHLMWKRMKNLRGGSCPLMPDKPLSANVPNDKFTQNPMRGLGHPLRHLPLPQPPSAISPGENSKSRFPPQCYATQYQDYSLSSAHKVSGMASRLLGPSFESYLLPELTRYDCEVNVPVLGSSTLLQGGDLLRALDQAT

Assays:
[1] = molecular target: CHD1L (human (endogenous in 786-O)) (UniProt Q86WJ1); assay: co-IP; endogenous proteins; cells lysed in 200 mM KCl, 20 mM Tris-HCl pH 7.9, 5 mM MgCl2, 10% glycerol, 0.2 mM EDTA, 0.1% NP-40; lysates with antibodies or control IgG at 4 °C overnight; western blot
[2] = molecular target: SIRT7 (human (endogenous in 786-O)) (UniProt Q9NRC8); assay: as above

binding [1]	binding [2]	Substance
binds	–	SIRT7 (from UniProt Q9NRC8 1-400)
binds	–	HIF-2α (from UniProt Q99814 1-870)
–	binds	CHD1L (from UniProt Q86WJ1 1-897)
